Results are given in words; binding and its absence hold for the method and conditions named. Binding seen in cells or lysates may run through a third protein. Some results given as binding are weak or reduced against the parent protein; the word gives no strength.

By UniProt entry, the sequences of proteins in these tests, tags left out.
UniProt Q9Y496: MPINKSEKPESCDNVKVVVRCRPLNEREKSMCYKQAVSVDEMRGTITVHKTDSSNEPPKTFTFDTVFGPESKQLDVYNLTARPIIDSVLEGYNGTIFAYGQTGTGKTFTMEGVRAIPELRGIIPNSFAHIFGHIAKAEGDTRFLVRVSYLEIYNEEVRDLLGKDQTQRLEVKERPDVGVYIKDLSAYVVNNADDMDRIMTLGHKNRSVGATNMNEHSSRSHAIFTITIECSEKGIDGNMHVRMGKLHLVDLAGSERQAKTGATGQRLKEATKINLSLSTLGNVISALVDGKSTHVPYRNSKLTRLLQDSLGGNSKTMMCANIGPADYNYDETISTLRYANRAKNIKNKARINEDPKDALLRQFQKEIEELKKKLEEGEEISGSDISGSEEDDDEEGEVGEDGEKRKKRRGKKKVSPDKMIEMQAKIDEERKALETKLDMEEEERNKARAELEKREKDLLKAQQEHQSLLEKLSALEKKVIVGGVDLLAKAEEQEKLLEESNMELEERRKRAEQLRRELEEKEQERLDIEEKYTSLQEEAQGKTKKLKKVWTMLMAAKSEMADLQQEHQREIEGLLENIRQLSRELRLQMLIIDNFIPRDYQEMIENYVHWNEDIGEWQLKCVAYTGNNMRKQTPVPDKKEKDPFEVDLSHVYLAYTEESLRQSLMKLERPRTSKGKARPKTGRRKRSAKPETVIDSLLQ
UniProt P10070: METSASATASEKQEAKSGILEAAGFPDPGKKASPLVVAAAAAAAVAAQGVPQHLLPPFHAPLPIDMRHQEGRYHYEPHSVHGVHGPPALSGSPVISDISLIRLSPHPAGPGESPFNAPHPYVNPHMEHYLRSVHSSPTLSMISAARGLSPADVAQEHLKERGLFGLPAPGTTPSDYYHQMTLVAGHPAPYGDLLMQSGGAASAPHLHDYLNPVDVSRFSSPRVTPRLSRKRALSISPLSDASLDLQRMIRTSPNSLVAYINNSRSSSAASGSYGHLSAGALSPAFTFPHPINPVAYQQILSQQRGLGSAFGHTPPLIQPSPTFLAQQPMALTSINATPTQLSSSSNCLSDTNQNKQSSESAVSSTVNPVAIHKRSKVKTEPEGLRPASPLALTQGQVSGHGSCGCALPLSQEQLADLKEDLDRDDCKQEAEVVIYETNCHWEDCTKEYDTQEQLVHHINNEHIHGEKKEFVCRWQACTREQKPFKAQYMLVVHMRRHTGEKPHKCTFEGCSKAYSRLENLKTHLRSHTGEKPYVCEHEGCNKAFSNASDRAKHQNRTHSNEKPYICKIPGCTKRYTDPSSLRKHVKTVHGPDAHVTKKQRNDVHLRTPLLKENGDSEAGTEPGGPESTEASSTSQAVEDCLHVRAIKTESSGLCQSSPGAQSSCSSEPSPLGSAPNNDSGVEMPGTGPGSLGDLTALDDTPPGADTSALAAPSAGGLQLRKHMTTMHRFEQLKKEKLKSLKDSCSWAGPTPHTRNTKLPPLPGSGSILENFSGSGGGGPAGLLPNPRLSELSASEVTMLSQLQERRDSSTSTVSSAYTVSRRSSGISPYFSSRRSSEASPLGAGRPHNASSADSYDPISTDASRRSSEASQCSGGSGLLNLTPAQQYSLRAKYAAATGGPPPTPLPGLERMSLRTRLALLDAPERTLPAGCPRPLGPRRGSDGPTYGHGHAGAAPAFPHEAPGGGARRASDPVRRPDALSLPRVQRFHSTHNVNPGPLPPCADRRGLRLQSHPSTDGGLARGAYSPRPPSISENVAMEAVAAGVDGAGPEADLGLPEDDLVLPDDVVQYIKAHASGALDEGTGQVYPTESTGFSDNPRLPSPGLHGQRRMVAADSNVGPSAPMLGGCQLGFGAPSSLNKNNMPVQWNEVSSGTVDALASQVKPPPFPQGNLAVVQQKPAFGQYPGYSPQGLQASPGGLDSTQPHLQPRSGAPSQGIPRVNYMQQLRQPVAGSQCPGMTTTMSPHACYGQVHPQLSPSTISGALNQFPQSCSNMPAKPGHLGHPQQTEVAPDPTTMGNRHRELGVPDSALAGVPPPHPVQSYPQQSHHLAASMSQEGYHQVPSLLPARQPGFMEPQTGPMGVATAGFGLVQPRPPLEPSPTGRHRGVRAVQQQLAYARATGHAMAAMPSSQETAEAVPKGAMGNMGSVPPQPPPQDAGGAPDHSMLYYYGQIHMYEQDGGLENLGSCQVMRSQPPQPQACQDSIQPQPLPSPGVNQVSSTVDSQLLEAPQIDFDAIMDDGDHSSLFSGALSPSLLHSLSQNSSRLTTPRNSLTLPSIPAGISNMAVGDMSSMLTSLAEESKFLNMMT
UniProt P10071: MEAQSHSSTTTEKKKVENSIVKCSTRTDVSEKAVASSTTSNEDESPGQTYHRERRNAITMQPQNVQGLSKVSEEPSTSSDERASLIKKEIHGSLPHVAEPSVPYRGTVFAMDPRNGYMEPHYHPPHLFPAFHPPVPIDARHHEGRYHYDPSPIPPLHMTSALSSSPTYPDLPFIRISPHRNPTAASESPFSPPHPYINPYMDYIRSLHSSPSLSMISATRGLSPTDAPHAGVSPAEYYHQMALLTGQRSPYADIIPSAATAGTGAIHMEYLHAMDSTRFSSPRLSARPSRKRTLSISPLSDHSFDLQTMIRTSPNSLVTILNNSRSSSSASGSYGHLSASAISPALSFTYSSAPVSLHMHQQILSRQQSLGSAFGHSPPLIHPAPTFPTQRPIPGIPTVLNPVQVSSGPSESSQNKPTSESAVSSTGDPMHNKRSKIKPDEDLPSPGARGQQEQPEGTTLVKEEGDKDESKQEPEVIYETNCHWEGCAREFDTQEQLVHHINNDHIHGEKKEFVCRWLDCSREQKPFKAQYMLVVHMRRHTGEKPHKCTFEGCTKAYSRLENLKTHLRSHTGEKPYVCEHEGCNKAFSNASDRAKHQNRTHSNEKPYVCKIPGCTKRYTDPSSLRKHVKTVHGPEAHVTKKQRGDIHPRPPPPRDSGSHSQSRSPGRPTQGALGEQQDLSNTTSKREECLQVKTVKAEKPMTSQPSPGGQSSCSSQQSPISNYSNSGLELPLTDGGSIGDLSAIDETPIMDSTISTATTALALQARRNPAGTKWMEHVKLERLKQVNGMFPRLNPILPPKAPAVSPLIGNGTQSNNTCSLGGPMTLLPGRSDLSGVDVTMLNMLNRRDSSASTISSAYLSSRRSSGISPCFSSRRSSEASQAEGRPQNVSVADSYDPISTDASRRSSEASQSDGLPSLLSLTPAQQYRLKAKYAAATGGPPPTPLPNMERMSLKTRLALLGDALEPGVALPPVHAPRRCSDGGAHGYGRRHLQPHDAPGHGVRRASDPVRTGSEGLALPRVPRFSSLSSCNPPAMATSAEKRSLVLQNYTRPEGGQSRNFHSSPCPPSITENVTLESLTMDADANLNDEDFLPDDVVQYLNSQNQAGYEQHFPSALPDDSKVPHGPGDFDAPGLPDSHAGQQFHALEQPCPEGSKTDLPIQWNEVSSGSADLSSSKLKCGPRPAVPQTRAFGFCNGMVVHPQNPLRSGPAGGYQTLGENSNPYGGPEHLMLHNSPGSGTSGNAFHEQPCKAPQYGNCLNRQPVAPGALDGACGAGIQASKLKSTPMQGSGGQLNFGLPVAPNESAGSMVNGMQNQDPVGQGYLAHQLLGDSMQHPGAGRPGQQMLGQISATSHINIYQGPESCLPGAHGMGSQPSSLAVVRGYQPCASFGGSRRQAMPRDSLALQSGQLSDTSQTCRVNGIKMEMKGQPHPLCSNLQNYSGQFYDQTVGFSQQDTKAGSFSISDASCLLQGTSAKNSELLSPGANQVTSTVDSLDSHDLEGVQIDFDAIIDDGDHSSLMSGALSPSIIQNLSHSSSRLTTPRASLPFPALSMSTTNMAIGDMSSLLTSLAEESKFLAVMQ

This assay has as its target Kinesin family member 3A (KIF3A) (human (endogenous in MRC-5)) (UniProt Q9Y496). The assay can be described thus: co-IP; anti-KIF3A immunoprecipitates (Protein A sepharose, overnight, 4 °C) from whole cell lysates (RIPA buffer) of MRC-5 cells untreated or treated with SiO2 for 12 and 48 h; western blot for GLI2 and GLI3; anti-IgG as control. (Immunoblotting shows a protein as a band on a membrane.)

As to “Glioma-associated oncogene homolog 2, full-length form (GLI2^FL) (from UniProt P10070 1-1586)”, the binding result is listed as “binds”. On to “Glioma-associated oncogene homolog 3, full-length form (GLI3^FL) (from UniProt P10071 1-1580)”, for which the binding entry is “binds”.

These data come from article PMC6993221.
